Source: paper doi:10.1101/621219 (bioRxiv, 2019)
Read-outs that look alike come from different tables or passages of the source. No constants are given. Whether binding was seen depends on the method and setting. Binding calls can cover weak binding; strength is not graded here.

How the values were obtained:
Assay in all cases: SEC
[1] = biological target: FoxA truncation mutant with residues 64-143 deleted (Pseudomonas aeruginosa strain PAO1) (UniProt Q9I116)
[2] = biological target: FoxA truncation mutant with residues 64-130 deleted (Pseudomonas aeruginosa strain PAO1) (UniProt Q9I116)
[3] = biological target: FoxA truncation mutant with residues 64-130 deleted (Pseudomonas aeruginosa strain PAO1) (UniProt Q9I116); remark: listed apart in the source

Measured: binding

B1: C-terminal domain of TonB1 from Pseudomonas aeruginosa PAO1 (residues 251-340) (domain or fragment, Pseudomonas aeruginosa strain PAO1, UniProt Q51368 251-340, looked up)
chain: DSDIKPLRMDPPVYPRMAQARGIEGRVKVLFTITSDGRIDDIQVLESVPSRMFDREVRQAMAKWRFEPRVSGGKIVARQATKMFFFKIEK
binds: all assays above
